According to patent publication US10085973B2, “Pharmaceutical composition containing a compound having a thrombopoietin receptor agonistic activity” (Shionogi & Co., Ltd., priority 2012, dated 2018):
No dose or concentration is given here for some results.

System: platelet count
Test: PD model from phase 1 trial in healthy male adults (profile of platelet count)
Type: in vivo, human
Source text: Using the plasma concentration of the drug and the platelet count data of 54 cases obtained in phase 1 trial carried out in Japan to healthy male adults, a PK/PD model was constructed that can describe pharmacokinetics and a profile of a platelet count. The PK model describing pharmacokinetics was a three-compartment model including three compartments in the absorption process in order to explain the delay in absorption. The PD model describing the relation between the plasma concentration and the profile of platelets counts was a model including five compartments in order to explain the maturation process of platelets. […] We assumed that the distributions of respective model parameters and the distributions of the residual errors of the models follow a log-normal distribution. Parameters were estimated by using the first order conditional estimation method with interaction in a software NONMEM (version VI, level 2.0).

Compound: CCCCCCO[C@@H](C)c1cccc(-c2csc(NC(=O)c3cc(Cl)c(/C=C(\C)C(=O)O)c(Cl)c3)n2)c1OC [lusutrombopag, (E)-3-[2,6-dichloro-4-[4-[3-[(S)-1-hexyloxyethyl]-2-methoxyphenyl]-thiazol-2-ylcarbamoyl]-phenyl]-2-methylacrylic acid]
- PLT0, mean: 201000 µL⁻¹
- γ (feedback coefficient), mean: 0.309
